Results from the supplement of paper PMC10849652.
The other results are listed elsewhere or left out.

Sequences of proteins named here, by UniProt entry; tags and fusion partners are left off. A change or cut given only in a name is not applied to a line headed by its entry.
UniProt P12955: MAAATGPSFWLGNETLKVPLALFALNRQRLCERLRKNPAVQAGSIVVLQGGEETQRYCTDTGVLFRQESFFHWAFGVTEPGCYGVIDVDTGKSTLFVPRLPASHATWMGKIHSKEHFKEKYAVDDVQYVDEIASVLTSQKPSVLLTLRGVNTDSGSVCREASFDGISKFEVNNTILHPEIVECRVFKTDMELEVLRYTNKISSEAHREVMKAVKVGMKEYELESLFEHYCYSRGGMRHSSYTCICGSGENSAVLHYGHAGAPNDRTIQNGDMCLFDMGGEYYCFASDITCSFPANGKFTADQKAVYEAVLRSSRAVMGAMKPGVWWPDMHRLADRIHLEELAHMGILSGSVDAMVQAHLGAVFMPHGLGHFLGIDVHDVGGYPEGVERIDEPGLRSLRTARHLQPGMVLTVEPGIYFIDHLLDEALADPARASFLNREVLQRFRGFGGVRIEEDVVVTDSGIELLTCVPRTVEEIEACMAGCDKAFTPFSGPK
UniProt Q86TB9: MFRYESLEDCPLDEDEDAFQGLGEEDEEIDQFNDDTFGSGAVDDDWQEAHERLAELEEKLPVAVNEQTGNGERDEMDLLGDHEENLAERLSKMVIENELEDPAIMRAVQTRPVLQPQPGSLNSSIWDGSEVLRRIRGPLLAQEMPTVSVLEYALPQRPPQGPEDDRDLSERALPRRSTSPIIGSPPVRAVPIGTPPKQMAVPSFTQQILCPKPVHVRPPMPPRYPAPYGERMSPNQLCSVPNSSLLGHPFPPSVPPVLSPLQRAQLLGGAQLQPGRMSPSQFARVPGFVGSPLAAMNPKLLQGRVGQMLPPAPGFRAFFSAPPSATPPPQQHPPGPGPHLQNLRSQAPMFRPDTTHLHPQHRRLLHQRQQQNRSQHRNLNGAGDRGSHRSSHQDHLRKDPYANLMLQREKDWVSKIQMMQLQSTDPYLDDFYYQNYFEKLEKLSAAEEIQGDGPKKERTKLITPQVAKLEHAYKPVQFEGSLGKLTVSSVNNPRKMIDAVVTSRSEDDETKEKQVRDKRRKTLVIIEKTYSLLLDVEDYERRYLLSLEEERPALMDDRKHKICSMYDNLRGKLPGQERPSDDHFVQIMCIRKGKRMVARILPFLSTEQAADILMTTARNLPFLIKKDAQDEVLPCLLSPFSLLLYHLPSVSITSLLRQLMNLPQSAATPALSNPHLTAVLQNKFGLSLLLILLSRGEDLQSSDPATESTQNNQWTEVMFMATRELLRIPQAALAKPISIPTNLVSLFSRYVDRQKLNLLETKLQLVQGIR
UniProt P40855: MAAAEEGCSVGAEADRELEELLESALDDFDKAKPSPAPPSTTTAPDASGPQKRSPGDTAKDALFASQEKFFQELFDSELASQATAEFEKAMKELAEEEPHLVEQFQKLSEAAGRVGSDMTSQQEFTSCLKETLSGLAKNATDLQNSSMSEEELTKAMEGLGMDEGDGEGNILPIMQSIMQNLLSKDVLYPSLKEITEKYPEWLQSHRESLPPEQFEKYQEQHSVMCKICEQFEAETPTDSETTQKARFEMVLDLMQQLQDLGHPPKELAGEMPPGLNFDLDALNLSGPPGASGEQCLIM
UniProt P30086: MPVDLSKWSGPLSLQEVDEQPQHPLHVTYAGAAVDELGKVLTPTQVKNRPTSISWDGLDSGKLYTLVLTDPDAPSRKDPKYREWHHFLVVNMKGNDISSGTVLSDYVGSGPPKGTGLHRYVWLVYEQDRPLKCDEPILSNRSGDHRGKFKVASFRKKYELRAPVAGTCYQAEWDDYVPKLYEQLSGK
UniProt P11498: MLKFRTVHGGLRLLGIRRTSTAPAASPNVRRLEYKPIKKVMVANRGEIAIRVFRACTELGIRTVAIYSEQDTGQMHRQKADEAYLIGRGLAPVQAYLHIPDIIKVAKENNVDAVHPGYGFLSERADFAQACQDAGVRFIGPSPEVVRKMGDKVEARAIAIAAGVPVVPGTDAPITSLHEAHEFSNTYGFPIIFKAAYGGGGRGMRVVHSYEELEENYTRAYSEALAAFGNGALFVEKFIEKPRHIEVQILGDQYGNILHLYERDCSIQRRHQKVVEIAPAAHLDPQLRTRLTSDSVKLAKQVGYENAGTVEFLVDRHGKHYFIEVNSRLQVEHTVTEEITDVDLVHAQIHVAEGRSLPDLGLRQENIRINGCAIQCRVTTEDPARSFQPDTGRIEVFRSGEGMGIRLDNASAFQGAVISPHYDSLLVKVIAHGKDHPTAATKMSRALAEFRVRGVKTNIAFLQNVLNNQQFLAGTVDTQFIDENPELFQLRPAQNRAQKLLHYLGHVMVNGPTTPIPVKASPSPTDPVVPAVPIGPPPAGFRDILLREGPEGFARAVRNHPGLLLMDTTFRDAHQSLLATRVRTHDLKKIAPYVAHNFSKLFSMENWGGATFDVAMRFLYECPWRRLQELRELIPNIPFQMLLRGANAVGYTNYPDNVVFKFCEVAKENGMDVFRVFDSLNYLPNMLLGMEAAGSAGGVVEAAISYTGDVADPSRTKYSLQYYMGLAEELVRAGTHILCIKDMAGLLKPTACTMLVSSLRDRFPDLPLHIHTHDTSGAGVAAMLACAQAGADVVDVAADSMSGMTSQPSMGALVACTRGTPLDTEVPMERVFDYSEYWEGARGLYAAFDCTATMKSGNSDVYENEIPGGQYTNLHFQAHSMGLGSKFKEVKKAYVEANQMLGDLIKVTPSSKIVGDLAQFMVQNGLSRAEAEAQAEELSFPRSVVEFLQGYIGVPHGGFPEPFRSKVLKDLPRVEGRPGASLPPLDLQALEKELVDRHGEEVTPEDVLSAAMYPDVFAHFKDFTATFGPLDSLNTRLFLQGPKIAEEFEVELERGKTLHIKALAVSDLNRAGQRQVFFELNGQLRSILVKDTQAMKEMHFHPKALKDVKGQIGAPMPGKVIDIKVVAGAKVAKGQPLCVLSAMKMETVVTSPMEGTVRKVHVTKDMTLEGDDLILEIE
UniProt Q9NTI5: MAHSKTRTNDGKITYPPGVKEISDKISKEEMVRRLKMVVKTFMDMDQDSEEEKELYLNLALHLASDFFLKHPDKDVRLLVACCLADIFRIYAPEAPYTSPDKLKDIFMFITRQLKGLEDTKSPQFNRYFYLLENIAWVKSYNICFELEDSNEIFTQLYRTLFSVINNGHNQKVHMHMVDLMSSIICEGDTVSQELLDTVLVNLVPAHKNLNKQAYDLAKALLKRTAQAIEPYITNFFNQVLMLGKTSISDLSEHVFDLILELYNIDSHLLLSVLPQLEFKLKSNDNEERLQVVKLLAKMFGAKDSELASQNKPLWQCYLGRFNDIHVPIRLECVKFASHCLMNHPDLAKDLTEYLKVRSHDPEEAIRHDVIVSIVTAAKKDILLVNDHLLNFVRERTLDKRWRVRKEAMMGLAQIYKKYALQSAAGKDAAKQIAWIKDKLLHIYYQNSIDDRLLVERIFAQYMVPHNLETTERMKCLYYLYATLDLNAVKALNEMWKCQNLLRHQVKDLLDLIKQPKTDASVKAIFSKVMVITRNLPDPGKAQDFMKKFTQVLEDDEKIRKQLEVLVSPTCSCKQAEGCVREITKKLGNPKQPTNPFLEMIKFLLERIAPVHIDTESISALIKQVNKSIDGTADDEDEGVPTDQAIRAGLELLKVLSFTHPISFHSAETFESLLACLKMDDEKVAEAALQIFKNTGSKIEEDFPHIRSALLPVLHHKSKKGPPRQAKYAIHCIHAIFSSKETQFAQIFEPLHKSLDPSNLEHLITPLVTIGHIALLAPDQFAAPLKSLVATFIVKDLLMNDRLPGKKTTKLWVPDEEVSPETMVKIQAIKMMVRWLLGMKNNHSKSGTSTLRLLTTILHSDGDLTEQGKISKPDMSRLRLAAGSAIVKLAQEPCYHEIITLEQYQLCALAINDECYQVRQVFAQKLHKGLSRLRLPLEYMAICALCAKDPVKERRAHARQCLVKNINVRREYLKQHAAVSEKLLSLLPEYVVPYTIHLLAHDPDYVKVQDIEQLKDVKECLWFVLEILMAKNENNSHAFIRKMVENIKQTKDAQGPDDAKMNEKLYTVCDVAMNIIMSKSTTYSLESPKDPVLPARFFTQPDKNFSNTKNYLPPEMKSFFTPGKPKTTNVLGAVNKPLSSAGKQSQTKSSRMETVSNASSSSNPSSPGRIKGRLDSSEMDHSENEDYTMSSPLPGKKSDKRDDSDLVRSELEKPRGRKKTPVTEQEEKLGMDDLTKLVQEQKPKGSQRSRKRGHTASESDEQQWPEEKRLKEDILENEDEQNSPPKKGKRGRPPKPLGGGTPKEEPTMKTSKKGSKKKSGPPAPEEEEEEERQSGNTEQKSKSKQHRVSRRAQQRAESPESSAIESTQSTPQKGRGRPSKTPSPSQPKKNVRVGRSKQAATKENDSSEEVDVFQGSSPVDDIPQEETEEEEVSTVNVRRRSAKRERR
UniProt O00330, whole entry, looked up: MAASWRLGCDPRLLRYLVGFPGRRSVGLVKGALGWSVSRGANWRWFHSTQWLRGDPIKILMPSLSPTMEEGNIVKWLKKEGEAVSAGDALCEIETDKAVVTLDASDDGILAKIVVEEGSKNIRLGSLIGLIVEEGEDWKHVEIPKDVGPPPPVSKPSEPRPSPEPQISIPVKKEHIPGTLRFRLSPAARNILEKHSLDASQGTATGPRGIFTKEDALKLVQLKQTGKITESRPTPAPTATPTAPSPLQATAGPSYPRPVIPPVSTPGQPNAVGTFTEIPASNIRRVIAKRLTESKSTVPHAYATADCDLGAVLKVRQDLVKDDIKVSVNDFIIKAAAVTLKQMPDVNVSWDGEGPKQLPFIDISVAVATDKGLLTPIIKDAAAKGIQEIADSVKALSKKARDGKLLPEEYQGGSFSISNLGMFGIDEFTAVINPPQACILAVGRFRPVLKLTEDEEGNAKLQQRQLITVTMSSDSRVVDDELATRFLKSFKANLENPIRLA
UniProt O15212, whole entry, looked up: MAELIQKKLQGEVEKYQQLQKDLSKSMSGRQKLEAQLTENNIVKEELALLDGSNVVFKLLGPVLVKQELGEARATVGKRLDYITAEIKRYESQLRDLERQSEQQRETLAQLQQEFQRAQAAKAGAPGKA
UniProt O14737: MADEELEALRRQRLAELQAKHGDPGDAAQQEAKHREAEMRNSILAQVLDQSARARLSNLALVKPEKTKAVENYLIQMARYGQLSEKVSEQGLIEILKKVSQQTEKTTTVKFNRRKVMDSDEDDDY
UniProt Q13442: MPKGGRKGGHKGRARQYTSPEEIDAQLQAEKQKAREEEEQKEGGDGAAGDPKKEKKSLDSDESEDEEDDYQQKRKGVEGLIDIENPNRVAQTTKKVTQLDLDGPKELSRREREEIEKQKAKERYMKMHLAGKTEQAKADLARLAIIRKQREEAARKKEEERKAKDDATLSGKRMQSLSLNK
UniProt Q9BRP1: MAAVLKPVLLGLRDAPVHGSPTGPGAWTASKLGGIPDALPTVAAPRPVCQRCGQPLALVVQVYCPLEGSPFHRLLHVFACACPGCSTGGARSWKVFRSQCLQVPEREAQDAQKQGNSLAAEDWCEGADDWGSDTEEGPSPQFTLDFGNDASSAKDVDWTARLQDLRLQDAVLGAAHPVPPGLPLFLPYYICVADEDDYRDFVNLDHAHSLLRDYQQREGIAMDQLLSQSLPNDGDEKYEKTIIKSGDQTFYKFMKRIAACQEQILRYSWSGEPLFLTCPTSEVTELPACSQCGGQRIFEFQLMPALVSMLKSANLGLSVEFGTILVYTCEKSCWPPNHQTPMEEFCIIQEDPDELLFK
UniProt Q96HC4: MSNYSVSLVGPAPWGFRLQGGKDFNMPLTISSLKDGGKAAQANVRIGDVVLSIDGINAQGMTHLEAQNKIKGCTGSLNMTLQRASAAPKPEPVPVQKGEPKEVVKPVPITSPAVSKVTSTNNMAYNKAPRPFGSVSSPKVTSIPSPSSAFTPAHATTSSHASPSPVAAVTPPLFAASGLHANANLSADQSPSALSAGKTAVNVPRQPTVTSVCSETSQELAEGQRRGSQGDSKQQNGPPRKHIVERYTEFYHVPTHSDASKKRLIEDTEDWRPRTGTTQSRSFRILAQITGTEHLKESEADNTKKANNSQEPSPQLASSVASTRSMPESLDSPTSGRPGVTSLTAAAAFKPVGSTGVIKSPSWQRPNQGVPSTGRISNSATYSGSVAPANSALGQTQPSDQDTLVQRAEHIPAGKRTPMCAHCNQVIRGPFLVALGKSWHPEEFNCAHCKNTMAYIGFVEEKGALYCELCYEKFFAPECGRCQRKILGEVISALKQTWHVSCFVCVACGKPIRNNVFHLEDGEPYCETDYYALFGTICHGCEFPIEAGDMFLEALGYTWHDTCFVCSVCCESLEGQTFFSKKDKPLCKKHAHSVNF

Tests used:
Test in all cases: log2 fold change, soluble protein after heating vs DMSO (PISA); higher = thermal stabilisation; K562 lysate, 10 uM; active = over 0.2 and 3.5 SD of the protein, either way, in both replicates (recomputed)
vemurafenib = compound: CCCS(=O)(=O)Nc1ccc(F)c(C(=O)c2c[nH]c3ncc(-c4ccc(Cl)cc4)cc23)c1F [vemurafenib]
Procedure, shortened: (§1)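 Soluble protein was defined as the supernatant remaining after 21,000xg for 90 min, following pooling of heated aliquots and adjustment to 0.5% NP-40 at 4°C. Before that, crude K562 extract at 1 mg/mL protein in PBS pH 7.4 with 1 mM MgCl2 was treated with 10 μM compound for 30 min and heated for 3 min across 48°C-58°C. Quantification used TMTpro 16plex LC-MS/MS with channel sums equalised, and values are log-two fold changes in thermal stability relative to solvent controls from duplicates.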

[1] = compound: CCCS(=O)(=O)Nc1ccc(F)c(C(=O)c2c[nH]c3ncc(Cl)cc23)c1F
Procedure, shortened: as §1

barasertib = compound: CCN(CCCOc1ccc2c(Nc3cc(CC(=O)Nc4cccc(F)c4)[nH]n3)ncnc2c1)CCOP(=O)(O)O [barasertib]
Procedure, shortened: as §1

[2] = compound: CC[C@@H]1C(=O)N(C)c2cnc(Nc3ccc(C(=O)NC4CCN(C)CC4)cc3OC)nc2N1C1CCCC1
Procedure, shortened: as §1

volasertib = compound: CC[C@@H]1C(=O)N(C)c2cnc(Nc3ccc(C(=O)N[C@H]4CC[C@H](N5CCN(CC6CC6)CC5)CC4)cc3OC)nc2N1C(C)C [volasertib]
Procedure, shortened: as §1

[3] = compound: CCn1c(C(=O)N(C2CC2)C2CC2)cc2c3c(ncn3C)c(Nc3cc(C)n(C)n3)nc21
Procedure, shortened: as §1

[4] = compound: CCn1cc(-c2ccnc3[nH]c(-c4cccc(CN(C)C)c4)cc23)c(-c2ccc(NC(=O)N(C)C)cc2)n1
Procedure, shortened: as §1

[5] = compound: CN1CCC(CNc2ccc3ncc(-c4cccc(OC(F)(F)F)c4)n3n2)CC1
Procedure, shortened: as §1

saracatinib = compound: CN1CCN(CCOc2cc(OC3CCOCC3)c3c(Nc4c(Cl)ccc5c4OCO5)ncnc3c2)CC1 [saracatinib]
Procedure, shortened: as §1

sotrastaurin = compound: CN1CCN(c2nc(C3=C(c4c[nH]c5ccccc45)C(=O)NC3=O)c3ccccc3n2)CC1 [sotrastaurin]
Procedure, shortened: as §1

alvocidib = compound: CN1CC[C@H](c2c(O)cc(O)c3c(=O)cc(-c4ccccc4Cl)oc23)[C@H](O)C1 [alvocidib]
Procedure, shortened: as §1

Tubastatin A = compound: CN1CCc2c(c3ccccc3n2Cc2ccc(C(=O)NO)cc2)C1 [Tubastatin A]
Procedure, shortened: as §1

[6] = compound: CNC(=O)C1=CC=CC=C1NC2=NC(=NC=C2Cl)NC3=C(C=C(C=C3)N4CCOCC4)OC
Procedure, shortened: as §1

defactinib = compound: CNC(=O)c1ccc(Nc2ncc(C(F)(F)F)c(NCc3nccnc3N(C)S(C)(=O)=O)n2)cc1 [defactinib]
Procedure, shortened: as §1

[7] = compound: CNc1nc(-c2ccc3c(N)n[nH]c3c2)cc(N2C[C@@H](C(=O)NC3CCCCC3)CC[C@H]2C)n1
Procedure, shortened: as §1

encorafenib = compound: COC(=O)N[C@@H](C)CNc1nccc(-c2cn(C(C)C)nc2-c2cc(Cl)cc(NS(C)(=O)=O)c2F)n1 [encorafenib]
Procedure, shortened: as §1

[8] = compound: COC(=O)[C@H](CCSC)NC(=O)C1=C(C=C(C=C1)NC[C@H](CS)N)C2=CC=CC=C2
Procedure, shortened: as §1

alisertib = compound: COc1cc(Nc2ncc3c(n2)-c2ccc(Cl)cc2C(c2c(F)cccc2OC)=NC3)ccc1C(=O)O [alisertib]
Procedure, shortened: as §1

[9] = compound: COc1cc2nc(-c3cc(F)ccc3O)nc(N[C@@H]3CNC[C@H]3C(C)(C)O)c2cc1OC
Procedure, shortened: as §1

gefitinib = compound: COc1cc2ncnc(Nc3ccc(F)c(Cl)c3)c2cc1OCCCN1CCOCC1 [gefitinib]
Procedure, shortened: as §1

Row | Target | log2 fold change (vemurafenib) | log2 fold change [1] | log2 fold change (barasertib) | log2 fold change [2] | log2 fold change (volasertib) | log2 fold change [3] | log2 fold change [4] | log2 fold change [5] | log2 fold change (saracatinib) | log2 fold change (sotrastaurin) | log2 fold change (alvocidib) | log2 fold change (Tubastatin A) | log2 fold change [6] | log2 fold change (defactinib) | log2 fold change [7] | log2 fold change (encorafenib) | log2 fold change [8] | log2 fold change (alisertib) | log2 fold change [9] | log2 fold change (gefitinib)
1 | PCBP2 (UniProt H3BRU6) | inactive: 0.13 | inactive: -0.031 | inactive: -0.115 | inactive: 0.085 | inactive: 0.036 | inactive: -0.082 | inactive: -0.041 | inactive: 0.047 | inactive: 0.1 | inactive: 0.179 | inactive: 0.033 | inactive: -0.116 | inactive: 0.082 | inactive: 0.061 | inactive: 0.018 | inactive: 0.04 | inactive: 0.017 | inactive: -0.023 | inactive: 0.072 | inactive: -0.145
2 | PBX2 (UniProt P40425) | inactive: 0.015 | inactive: 0.073 | inactive: 0.016 | inactive: -0.016 | inactive: 0.028 | inactive: -0.004 | inactive: -0.053 | inactive: 0 | inactive: 0.027 | inactive: 0.033 | inactive: -0.018 | inactive: -0.032 | inactive: 0.028 | inactive: 0.021 | inactive: -0.001 | inactive: 0.028 | inactive: 0.161 | inactive: 0.004 | inactive: 0.009 | inactive: -0.001
3 | PEPD (UniProt P12955) | inactive: -0.034 | inactive: 0.024 | inactive: -0.011 | inactive: -0.008 | inactive: 0.011 | inactive: -0.048 | inactive: 0.028 | inactive: 0.04 | inactive: -0.013 | inactive: 0.005 | inactive: 0.015 | inactive: 0.039 | inactive: 0.053 | inactive: -0.015 | inactive: 0.015 | inactive: 0.009 | inactive: -0.07 | inactive: 0.03 | inactive: -0.017 | inactive: -0.074
4 | PATL1 (UniProt Q86TB9) | inactive: -0.049 | inactive: 0.019 | inactive: 0.04 | inactive: 0.02 | inactive: -0.036 | inactive: 0.027 | inactive: 0.007 | inactive: -0.009 | inactive: -0.027 | inactive: 0.086 | inactive: 0.002 | inactive: 0.021 | inactive: 0.006 | inactive: -0.027 | inactive: 0.024 | inactive: 0.068 | inactive: 0.207 | inactive: 0.068 | inactive: 0.054 | inactive: -0.002
5 | PDCD11 (UniProt Q14690) | inactive: 0.111 | inactive: 0.037 | inactive: -0.067 | inactive: -0.076 | inactive: -0.033 | inactive: 0.019 | inactive: -0.107 | inactive: 0.023 | inactive: 0.023 | inactive: 0.018 | inactive: 0.011 | inactive: 0.002 | inactive: -0.018 | inactive: -0.133 | inactive: 0.018 | inactive: 0.085 | inactive: 0.077 | inactive: 0.049 | inactive: -0.007 | inactive: 0.064
6 | PEX19 (UniProt P40855) | inactive: 0.014 | inactive: 0.024 | inactive: 0.257 | inactive: 0.04 | inactive: 0.045 | inactive: -0.049 | inactive: -0.014 | inactive: 0.016 | inactive: 0.007 | inactive: -0.025 | inactive: -0.028 | inactive: 0.007 | inactive: 0.021 | inactive: 0.016 | inactive: 0.085 | inactive: -0.02 | inactive: -0.092 | inactive: 0.028 | inactive: -0.004 | inactive: -0.024
7 | PEBP1 (UniProt P30086) | inactive: -0.024 | inactive: 0.002 | inactive: 0.026 | inactive: 0.023 | inactive: 0.035 | inactive: 0.005 | inactive: -0.073 | inactive: 0.011 | inactive: -0.031 | inactive: -0.024 | inactive: 0.023 | inactive: 0.026 | inactive: 0.005 | inactive: 0.007 | inactive: 0.01 | inactive: -0.044 | inactive: -0.029 | inactive: -0.006 | inactive: 0.003 | inactive: 0.001
8 | PC (UniProt P11498) | inactive: 0.051 | inactive: 0.034 | inactive: 0.021 | inactive: -0.041 | inactive: -0.056 | inactive: 0.015 | inactive: 0.019 | inactive: -0.034 | inactive: -0.009 | inactive: 0.027 | inactive: 0.007 | inactive: -0.046 | inactive: 0.064 | inactive: 0.016 | inactive: 0.044 | inactive: 0.011 | inactive: 0.062 | inactive: -0.033 | inactive: 0.021 | inactive: 0.022
9 | PDS5B (UniProt Q9NTI5) | inactive: 0.04 | inactive: 0.03 | inactive: 0.05 | inactive: -0.049 | inactive: -0.026 | inactive: 0.034 | inactive: -0.057 | inactive: -0.026 | inactive: 0.019 | inactive: 0.019 | inactive: -0.006 | inactive: -0.048 | inactive: 0.019 | inactive: 0.008 | inactive: -0.025 | inactive: 0.019 | inactive: -0.003 | inactive: 0.012 | inactive: -0.024 | inactive: 0.007
10 | PDHX (UniProt O00330) | inactive: 0.003 | inactive: 0.015 | inactive: 0.013 | inactive: -0.02 | inactive: 0.029 | inactive: 0.015 | inactive: 0.038 | inactive: -0.057 | inactive: -0.001 | inactive: -0.018 | inactive: 0.033 | inactive: 0.031 | inactive: -0.007 | inactive: -0.02 | inactive: 0.005 | inactive: 0.011 | inactive: -0.034 | inactive: 0.012 | inactive: -0.012 | inactive: -0.001
11 | PFDN6 (UniProt O15212) | inactive: -0.028 | inactive: -0.033 | inactive: 0.205 | inactive: 0.008 | inactive: 0.03 | inactive: 0.04 | inactive: 0.055 | inactive: -0.1 | inactive: 0.011 | inactive: -0.009 | inactive: 0.071 | inactive: 0.052 | inactive: 0.021 | inactive: 0.023 | inactive: 0.037 | inactive: -0.002 | inactive: -0.062 | inactive: -0.015 | inactive: 0.007 | inactive: -0.048
12 | PDCD5 (UniProt O14737) | inactive: -0.01 | inactive: -0.012 | inactive: 0.044 | inactive: 0.034 | inactive: 0.052 | inactive: 0 | inactive: -0.189 | inactive: 0.099 | inactive: -0.044 | inactive: 0.014 | inactive: -0.056 | inactive: 0.061 | inactive: -0.003 | inactive: -0.007 | inactive: 0.031 | inactive: -0.011 | inactive: -0.032 | inactive: 0.034 | inactive: 0.008 | inactive: 0.031
13 | PDAP1 (UniProt Q13442) | inactive: -0.026 | inactive: -0.01 | inactive: -0.064 | inactive: 0.069 | inactive: 0.04 | inactive: -0.043 | active: -0.267 | inactive: 0.159 | inactive: -0.002 | inactive: -0.02 | inactive: -0.074 | inactive: 0.063 | inactive: 0.004 | inactive: -0.012 | inactive: 0.109 | inactive: -0.038 | inactive: -0.017 | inactive: 0.006 | inactive: 0.018 | inactive: -0.029
14 | PELO (UniProt Q9BRX2) | inactive: 0 | inactive: 0.021 | inactive: 0.037 | inactive: -0.115 | inactive: -0.066 | inactive: -0.014 | active: 0.404 | inactive: -0.183 | inactive: -0.001 | inactive: -0.018 | inactive: 0.149 | inactive: -0.086 | inactive: 0.026 | inactive: -0.022 | inactive: -0.043 | inactive: 0.056 | inactive: 0.084 | inactive: 0.008 | inactive: 0.006 | inactive: 0.006
15 | PDCD2L (UniProt Q9BRP1) | inactive: 0.058 | inactive: 0.004 | inactive: -0.06 | inactive: 0.011 | inactive: -0.039 | inactive: -0.017 | inactive: -0.076 | inactive: 0.009 | inactive: -0.003 | inactive: -0.012 | inactive: -0.034 | inactive: -0.11 | inactive: 0.053 | inactive: -0.062 | inactive: -0.001 | inactive: 0.025 | inactive: 0.037 | inactive: -0.037 | inactive: 0.007 | inactive: -0.035
16 | PDLIM5 (UniProt Q96HC4) | inactive: -0.028 | inactive: 0.014 | inactive: -0.079 | inactive: 0.022 | inactive: 0.013 | inactive: -0.046 | inactive: -0.132 | inactive: 0.142 | inactive: 0 | inactive: -0.043 | inactive: -0.073 | inactive: 0.033 | inactive: -0.014 | inactive: -0.005 | inactive: 0.013 | inactive: 0.005 | inactive: -0.118 | inactive: -0.006 | inactive: -0.009 | inactive: -0.037

An excerpt of these results, in markdown.

| Row | Target | log2 fold change (vemurafenib) | log2 fold change [1] | log2 fold change (barasertib) | log2 fold change [2] | log2 fold change (volasertib) | log2 fold change [3] | log2 fold change [4] | log2 fold change [5] | log2 fold change (saracatinib) | log2 fold change (sotrastaurin) | log2 fold change (alvocidib) | log2 fold change (Tubastatin A) | log2 fold change [6] | log2 fold change (defactinib) | log2 fold change [7] | log2 fold change (encorafenib) | log2 fold change [8] | log2 fold change (alisertib) | log2 fold change [9] | log2 fold change (gefitinib) |
| --- | --- | --- | --- | --- | --- | --- | --- | --- | --- | --- | --- | --- | --- | --- | --- | --- | --- | --- | --- | --- | --- |
| 9 | PDS5B (UniProt Q9NTI5) | inactive: 0.04 | inactive: 0.03 | inactive: 0.05 | inactive: -0.049 | inactive: -0.026 | inactive: 0.034 | inactive: -0.057 | inactive: -0.026 | inactive: 0.019 | inactive: 0.019 | inactive: -0.006 | inactive: -0.048 | inactive: 0.019 | inactive: 0.008 | inactive: -0.025 | inactive: 0.019 | inactive: -0.003 | inactive: 0.012 | inactive: -0.024 | inactive: 0.007 |
| 10 | PDHX (UniProt O00330) | inactive: 0.003 | inactive: 0.015 | inactive: 0.013 | inactive: -0.02 | inactive: 0.029 | inactive: 0.015 | inactive: 0.038 | inactive: -0.057 | inactive: -0.001 | inactive: -0.018 | inactive: 0.033 | inactive: 0.031 | inactive: -0.007 | inactive: -0.02 | inactive: 0.005 | inactive: 0.011 | inactive: -0.034 | inactive: 0.012 | inactive: -0.012 | inactive: -0.001 |
